The values that follow come from patent US20140212439A1 (Daiichi Sankyo, published 2014).

Amino acid sequences for entries named in this document (tags omitted). A change or cut given only in a name is not applied to a line headed by its entry. Residues count along the entry.
UniProt P29317, residues 24-537: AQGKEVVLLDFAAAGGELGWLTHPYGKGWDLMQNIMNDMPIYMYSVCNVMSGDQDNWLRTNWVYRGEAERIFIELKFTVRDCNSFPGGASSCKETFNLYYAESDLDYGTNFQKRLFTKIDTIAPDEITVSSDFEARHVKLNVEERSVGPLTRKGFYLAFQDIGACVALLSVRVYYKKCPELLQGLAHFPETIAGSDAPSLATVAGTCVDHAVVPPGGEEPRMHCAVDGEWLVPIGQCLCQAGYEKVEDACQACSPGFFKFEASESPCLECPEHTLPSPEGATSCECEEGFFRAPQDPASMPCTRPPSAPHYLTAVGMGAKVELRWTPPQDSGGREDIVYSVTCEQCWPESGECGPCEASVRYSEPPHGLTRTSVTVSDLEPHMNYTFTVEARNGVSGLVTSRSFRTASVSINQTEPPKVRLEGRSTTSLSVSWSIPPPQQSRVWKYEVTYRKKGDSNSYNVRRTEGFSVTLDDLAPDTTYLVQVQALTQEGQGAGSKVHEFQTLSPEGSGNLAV

Assay [1] deals with EPHA2 extracellular region polypeptide (R&D Systems, #3035-A2-100) (UniProt P29317). The experiment in a line: ELISA, EPHA2 extracellular region coated at 1 µg/ml, antibody at 1.25×10^-4 to 125 µg/ml.
Assay [2] deals with EPHA2 deletion mutant m2 (amino acid Nos. 426 to 534 of SEQ ID NO: 8) (human) (UniProt P29317). The experiment in a line: Western blot on EPHA2 deletion mutants, antibody at 2 µg/ml. (A western blot detects proteins with antibodies after separation by electrophoresis.)
Assay [3] has as its target EPHA2 deletion mutant m1 (amino acid Nos. 426 to 540 of SEQ ID NO: 8) (human) (UniProt P29317). Described as above.
The target in assay [4] is EPHA2 extracellular region polypeptide (R&D Systems, #3035-A2-100) (UniProt P29317). The experiment in a line: ELISA on coated EPHA2 extracellular region, anti-human IgG Fc secondary antibody. (An ELISA detects its analyte on a solid surface through an enzyme-linked reagent.)

No constants are given. Whether binding was seen depends on the method and setting. Some binding calls cover weakened binding; strength is not graded here.

B1: SH348-1 (antibody produced by hybridoma SH348-1, FERM BP-10836) (antibody, mouse IgG2a, kappa, V domains shown)
VH: QIQLVQSGPELKKPGETVKISCKASGYTFTHYSMHWVKQAPGKGLKWMGWINTYTGEPTYADDFKGRFAFSLETSASTAFLQINNLKNEDTATYFCATYYRYERDFDYWGQGTTLTVSS
VL: DVLMTQSPLSLPVSLGDQASISCRSSQSIVHSNGNTYLEWYLQKPGQSPKLLIYKVSNRFSGVPDRFSGSGSGTDFTLRISRVEAEDLGVYYCFQGSHVPYTFGGGTKLEIKR
modifications: N-terminal pyroglutamic acid
notes: Mouse monoclonal IgG2a, kappa; The ends of the cDNAs are primer-derived; also called bSH348-1 (biotinylated form)
In the case of B1, the binding result in assay [1], in assay [2] and in assay [3] was “binds” in each case.

B2: hSH348-1-T3 (antibody, human IgG1, kappa, V domains shown)
VH: QIQLVQSGAEVKKPGSSVKVSCKASGYTFTHYSMHWVRQAPGQGLKWMGWINTYTGEPTYADDFKGRFAFSLDTSTSTAYLELSSLRSEDTAVYYCATYYRYERDFDYWGQGTLVTVSS
VL: DVLMTQSPLSLPVTPGEPASISCRSSQSIVHSNGNTYLEWYLQKPGQSPQLLIYKVSNRFSGVPDRFSGSGSGTDFTLKISRVEAEDVGVYYCFQGSHVPYTFGQGTKVEIKR
Take B2: the binding result in assay [4] is reported as “binds”.

B3: SH357-1 (antibody produced by hybridoma SH357-1, FERM BP-10837) (antibody, mouse IgG2a, kappa, V domains shown)
VH: QIQLVQSGPELKKPGETVKISCKASGYTFIDYSMHWVKQAPGKGLKWMGWINTYTGEPTYSDDFKGRFAFSLETSASTAYLQISNLKNEDTASYFCATYYRYERDFDYWGQGTTLTVSS
VL: DVLMTQTPLSLPVSLGDQASISCRSSQSIVHSSGITYLEWYLQKPGQSPKLLIYKVSNRFSGVPDRFSGSGSGTDFTLKISRVEAEDLGVYYCFQGSHVPYTFGGGTKLEIKR
notes: Mouse monoclonal IgG2a, kappa; also called bSH357-1 (biotinylated form)
Take B3: the binding entry in assay [1], in assay [2] and in assay [3] was “binds” in each case.

B4: hSH348-1-T1 (antibody, human IgG1, kappa, V domains shown)
VH: QVQLVQSGAEVKKPGSSVKVSCKASGYTFTHYSMHWVRQAPGQGLEWMGWINTYTGEPTYADDFKGRVTITADTSTSTAYLELSSLRSEDTAVYYCATYYRYERDFDYWGQGTLVTVSS
VL: DIVMTQSPLSLPVTPGEPASISCRSSQSIVHSNGNTYLEWYLQKPGQSPQLLIYKVSNRFSGVPDRFSGSGSGTDFTLKISRVEAEDVGVYYCFQGSHVPYTFGQGTKVEIKR
B4: the binding entry in assay [4] is on record as “binds”.

B5: hSH357-1-T1 (antibody, human IgG1, kappa, V domains shown)
VH: QVQLVQSGAEVKKPGASVKVSCKASGYTFIDYSMHWVRQAPGQGLEWMGWINTYTGEPTYSDDFKGRVTITADTSTSTAYLELSSLRSEDTAVYYCATYYRYERDFDYWGQGTLVTVSS
VL: DIVMTQSPLSLPVTPGEPASISCRSSQSIVHSSGITYLEWYLQKPGQSPQLLIYKVSNRFSGVPDRFSGSGSGTDFTLKISRVEAEDVGVYYCFQGSHVPYTFGQGTKVEIKR
For B5, in assay [4], the binding result is listed as “binds”.

B6: hSH357-1-T3 (antibody, human IgG1, kappa, V domains shown)
VH: QIQLVQSGAEVKKPGASVKVSCKASGYTFIDYSMHWVRQAPGQGLKWMGWINTYTGEPTYSDDFKGRFAFSLDTSTSTAYLELSSLRSEDTAVYYCATYYRYERDFDYWGQGTLVTVSS
VL: DVLMTQSPLSLPVTPGEPASISCRSSQSIVHSSGITYLEWYLQKPGQSPQLLIYKVSNRFSGVPDRFSGSGSGTDFTLKISRVEAEDVGVYYCFQGSHVPYTFGQGTKVEIKR
For B6, the binding entry in assay [4] is “binds”.
